The results in this text go back to the supplement of paper PMC12595434, “Development of retinoid nuclear receptor pathway antagonists through targeting aldehyde dehydrogenase 1A3” (iScience, 2025).

Sequences of proteins named here, by UniProt entry; tags and fusion partners are left off. A change or cut given only in a name is not applied to a line headed by its entry.
UniProt Q8IY17: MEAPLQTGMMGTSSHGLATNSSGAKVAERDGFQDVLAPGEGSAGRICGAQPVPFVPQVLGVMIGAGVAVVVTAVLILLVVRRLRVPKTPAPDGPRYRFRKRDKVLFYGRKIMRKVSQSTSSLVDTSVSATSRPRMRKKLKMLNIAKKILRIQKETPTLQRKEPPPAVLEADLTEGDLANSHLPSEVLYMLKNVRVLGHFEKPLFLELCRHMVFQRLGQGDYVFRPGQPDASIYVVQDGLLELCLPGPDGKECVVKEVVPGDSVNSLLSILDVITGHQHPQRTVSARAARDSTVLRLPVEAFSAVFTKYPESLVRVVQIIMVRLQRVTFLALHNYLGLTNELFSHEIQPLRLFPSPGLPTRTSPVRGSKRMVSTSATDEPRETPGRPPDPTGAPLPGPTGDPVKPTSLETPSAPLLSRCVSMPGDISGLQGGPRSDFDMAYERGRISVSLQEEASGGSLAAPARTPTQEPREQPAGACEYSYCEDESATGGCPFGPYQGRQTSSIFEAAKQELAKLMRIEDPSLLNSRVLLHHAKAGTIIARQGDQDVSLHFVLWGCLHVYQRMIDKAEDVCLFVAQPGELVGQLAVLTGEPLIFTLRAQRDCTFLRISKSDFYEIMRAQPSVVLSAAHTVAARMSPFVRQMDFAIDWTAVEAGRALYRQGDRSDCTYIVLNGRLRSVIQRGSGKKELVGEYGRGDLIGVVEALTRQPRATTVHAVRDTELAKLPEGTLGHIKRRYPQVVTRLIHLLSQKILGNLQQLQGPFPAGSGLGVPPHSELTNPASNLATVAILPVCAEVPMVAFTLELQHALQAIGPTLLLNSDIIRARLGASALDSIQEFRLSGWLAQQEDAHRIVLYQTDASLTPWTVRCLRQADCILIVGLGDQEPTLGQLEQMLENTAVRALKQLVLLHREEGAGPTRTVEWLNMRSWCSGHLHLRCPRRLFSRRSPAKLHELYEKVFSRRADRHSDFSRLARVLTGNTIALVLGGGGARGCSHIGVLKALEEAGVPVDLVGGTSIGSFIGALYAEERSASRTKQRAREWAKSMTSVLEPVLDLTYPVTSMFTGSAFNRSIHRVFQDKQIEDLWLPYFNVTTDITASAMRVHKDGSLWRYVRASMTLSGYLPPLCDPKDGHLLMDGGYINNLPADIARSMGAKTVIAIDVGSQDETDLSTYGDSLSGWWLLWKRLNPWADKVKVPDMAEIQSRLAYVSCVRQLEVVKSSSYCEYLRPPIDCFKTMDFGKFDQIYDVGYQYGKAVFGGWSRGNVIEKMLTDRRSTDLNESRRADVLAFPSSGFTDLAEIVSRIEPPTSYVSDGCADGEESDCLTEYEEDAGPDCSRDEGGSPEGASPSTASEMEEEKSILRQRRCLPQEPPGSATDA
UniProt Q8IV48: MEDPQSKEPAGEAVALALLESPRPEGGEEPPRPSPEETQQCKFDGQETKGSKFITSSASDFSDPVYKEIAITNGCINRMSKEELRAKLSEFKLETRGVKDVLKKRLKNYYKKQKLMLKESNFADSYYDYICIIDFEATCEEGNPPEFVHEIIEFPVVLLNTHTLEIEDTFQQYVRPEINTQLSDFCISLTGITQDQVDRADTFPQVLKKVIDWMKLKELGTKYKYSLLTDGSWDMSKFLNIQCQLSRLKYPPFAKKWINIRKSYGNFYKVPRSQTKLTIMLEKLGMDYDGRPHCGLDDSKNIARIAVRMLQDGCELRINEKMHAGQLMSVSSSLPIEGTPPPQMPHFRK
UniProt Q8N108: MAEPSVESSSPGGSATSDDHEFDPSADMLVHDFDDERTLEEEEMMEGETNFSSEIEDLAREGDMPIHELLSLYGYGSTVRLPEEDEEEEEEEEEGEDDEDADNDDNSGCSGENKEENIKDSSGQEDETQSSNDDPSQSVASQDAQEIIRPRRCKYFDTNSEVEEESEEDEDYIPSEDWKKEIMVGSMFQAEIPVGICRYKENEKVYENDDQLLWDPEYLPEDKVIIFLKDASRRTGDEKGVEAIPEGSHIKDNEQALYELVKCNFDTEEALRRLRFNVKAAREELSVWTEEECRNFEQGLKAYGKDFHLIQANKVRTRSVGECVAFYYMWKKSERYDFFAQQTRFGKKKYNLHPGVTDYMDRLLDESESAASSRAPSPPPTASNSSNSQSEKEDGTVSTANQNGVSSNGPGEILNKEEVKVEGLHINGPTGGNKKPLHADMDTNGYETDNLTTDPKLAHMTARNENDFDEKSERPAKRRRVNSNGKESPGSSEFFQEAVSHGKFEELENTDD
UniProt Q8N5C6: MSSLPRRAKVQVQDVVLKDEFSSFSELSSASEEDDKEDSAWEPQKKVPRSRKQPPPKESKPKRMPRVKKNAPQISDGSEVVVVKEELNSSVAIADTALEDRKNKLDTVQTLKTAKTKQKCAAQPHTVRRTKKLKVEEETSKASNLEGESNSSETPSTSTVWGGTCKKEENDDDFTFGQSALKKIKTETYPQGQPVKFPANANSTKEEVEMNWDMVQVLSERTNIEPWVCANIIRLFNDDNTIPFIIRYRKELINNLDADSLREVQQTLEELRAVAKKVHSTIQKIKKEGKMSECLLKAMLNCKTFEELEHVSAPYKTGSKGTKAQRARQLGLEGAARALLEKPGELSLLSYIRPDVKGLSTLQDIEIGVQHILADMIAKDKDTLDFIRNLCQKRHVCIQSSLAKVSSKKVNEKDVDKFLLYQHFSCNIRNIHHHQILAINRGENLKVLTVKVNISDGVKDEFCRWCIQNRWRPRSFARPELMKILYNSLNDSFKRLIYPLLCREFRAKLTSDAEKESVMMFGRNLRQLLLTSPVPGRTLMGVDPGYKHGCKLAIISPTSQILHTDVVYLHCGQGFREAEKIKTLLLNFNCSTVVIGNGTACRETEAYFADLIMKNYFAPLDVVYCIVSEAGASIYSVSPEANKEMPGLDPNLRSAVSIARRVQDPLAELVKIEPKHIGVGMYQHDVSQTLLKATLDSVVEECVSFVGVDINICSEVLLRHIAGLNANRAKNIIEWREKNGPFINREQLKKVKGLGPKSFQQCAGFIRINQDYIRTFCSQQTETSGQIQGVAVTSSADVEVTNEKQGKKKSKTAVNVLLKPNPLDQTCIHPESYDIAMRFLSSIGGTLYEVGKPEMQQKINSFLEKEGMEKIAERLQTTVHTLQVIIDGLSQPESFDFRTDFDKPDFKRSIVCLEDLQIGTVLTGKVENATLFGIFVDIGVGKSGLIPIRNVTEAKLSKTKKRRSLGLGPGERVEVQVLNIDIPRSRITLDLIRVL
UniProt Q8IX01: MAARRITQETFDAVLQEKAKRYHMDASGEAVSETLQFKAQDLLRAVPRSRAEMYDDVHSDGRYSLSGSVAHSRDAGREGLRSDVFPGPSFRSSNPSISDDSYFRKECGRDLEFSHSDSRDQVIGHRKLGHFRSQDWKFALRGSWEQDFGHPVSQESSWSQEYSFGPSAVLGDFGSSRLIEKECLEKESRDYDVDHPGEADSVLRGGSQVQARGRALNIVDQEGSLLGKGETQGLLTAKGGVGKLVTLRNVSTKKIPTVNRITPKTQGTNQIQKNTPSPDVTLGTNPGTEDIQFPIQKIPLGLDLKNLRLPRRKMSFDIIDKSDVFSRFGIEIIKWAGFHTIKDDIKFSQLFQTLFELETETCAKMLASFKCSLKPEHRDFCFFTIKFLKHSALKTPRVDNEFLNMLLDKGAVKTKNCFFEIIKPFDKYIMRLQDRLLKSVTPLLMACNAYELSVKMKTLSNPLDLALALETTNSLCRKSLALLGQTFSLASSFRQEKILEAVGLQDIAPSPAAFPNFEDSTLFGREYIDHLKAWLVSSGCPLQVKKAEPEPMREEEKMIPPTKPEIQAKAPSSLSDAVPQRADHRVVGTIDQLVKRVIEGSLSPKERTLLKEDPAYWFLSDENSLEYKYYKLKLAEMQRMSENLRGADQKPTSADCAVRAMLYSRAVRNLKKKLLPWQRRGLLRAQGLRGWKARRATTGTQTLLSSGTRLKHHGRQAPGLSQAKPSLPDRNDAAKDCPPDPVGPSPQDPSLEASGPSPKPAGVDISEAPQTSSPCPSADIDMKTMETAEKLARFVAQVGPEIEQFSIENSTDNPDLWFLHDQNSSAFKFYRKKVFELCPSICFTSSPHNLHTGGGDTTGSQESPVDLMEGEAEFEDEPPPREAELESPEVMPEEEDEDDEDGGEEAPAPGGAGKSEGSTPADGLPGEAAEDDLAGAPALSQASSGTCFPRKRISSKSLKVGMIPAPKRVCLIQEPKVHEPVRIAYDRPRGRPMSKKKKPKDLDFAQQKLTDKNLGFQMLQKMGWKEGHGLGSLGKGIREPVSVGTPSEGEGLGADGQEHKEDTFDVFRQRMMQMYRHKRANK
UniProt Q8IXU6: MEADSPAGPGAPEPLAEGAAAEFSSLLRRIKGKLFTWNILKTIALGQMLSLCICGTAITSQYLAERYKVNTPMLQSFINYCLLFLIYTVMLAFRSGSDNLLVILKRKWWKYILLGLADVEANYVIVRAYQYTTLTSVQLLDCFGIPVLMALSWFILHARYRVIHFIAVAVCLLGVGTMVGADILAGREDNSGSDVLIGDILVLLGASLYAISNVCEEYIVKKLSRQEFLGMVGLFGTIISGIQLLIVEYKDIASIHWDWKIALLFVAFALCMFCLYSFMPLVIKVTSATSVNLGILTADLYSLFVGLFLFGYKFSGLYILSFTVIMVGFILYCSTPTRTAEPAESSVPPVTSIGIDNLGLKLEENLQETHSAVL
UniProt Q8N5A5: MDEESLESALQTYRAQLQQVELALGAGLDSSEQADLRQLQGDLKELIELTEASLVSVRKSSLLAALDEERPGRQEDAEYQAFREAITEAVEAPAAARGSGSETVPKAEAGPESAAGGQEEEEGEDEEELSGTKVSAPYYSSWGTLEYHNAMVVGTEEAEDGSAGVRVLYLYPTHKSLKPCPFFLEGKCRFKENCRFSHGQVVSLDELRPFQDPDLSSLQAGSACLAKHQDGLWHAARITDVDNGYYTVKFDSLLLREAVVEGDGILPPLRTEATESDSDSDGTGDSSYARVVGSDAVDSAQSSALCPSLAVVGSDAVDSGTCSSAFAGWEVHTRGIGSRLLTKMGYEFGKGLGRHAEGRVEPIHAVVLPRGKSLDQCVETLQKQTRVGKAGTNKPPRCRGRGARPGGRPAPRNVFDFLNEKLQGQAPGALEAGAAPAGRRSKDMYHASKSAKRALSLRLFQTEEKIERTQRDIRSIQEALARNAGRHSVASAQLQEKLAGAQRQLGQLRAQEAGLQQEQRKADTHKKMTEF
UniProt Q8IWB7: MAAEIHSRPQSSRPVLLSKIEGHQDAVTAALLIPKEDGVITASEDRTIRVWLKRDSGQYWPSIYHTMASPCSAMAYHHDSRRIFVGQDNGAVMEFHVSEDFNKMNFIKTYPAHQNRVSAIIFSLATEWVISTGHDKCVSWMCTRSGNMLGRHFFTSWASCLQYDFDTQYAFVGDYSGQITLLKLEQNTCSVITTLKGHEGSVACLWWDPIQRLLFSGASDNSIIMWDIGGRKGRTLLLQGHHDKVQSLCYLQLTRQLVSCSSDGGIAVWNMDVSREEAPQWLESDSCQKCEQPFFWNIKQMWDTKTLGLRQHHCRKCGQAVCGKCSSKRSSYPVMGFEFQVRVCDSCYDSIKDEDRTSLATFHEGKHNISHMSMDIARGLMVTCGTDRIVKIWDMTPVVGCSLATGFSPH
UniProt Q8IWC1: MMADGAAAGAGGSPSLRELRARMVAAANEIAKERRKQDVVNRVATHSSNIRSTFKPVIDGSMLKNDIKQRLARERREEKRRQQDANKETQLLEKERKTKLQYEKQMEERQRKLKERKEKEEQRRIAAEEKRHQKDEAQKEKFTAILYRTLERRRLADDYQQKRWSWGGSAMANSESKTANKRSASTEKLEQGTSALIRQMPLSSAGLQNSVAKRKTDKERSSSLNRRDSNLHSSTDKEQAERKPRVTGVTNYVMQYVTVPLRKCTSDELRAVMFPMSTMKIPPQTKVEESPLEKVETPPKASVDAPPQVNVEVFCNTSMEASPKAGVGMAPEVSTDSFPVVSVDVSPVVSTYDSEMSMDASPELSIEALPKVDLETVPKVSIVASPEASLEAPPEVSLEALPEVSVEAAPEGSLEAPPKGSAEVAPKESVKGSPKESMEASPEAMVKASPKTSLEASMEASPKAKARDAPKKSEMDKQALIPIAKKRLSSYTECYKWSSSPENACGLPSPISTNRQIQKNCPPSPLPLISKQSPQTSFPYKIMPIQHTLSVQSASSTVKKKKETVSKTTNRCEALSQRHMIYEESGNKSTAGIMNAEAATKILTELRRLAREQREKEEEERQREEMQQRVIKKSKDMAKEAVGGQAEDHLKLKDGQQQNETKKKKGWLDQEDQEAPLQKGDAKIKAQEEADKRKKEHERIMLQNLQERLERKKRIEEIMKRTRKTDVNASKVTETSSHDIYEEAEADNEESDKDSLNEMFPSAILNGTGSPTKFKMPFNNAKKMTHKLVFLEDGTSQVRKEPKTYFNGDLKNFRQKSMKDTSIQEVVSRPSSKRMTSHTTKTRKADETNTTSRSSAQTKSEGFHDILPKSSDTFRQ

The list shows a part of the results. Single values of this set are uncertain.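 Tm was set to 64 °C where no melting was found, and many curves are irregular.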

Compound in one test: CCc1cnccc1C(=O)Nc1cc2c(cc1F)NC(=O)CC2
Description: melting temperature shift (DMSO Tm minus MBE1-treated Tm) in cellular thermal proteome profiling; higher = less thermal stabilization by MBE1 (negative = stabilized by MBE1). Conditions: A375; MBE1 concentration: 100 nM.
In the case of PNPLA6 (UniProt Q8IY17), the melting temperature shift is -0.561 °C.
With UniProt Q8IWK6, the melting temperature shift was determined as 1.04 °C.
On to ERI1 (UniProt Q8IV48), for which the melting temperature shift is -2.03 °C.
As for MIER1 (UniProt Q8N108), the melting temperature shift was -0.624 °C.
Regarding SPATS2 (UniProt Q86XZ4), the melting temperature shift came out at 0.0855 °C.
On the same count and under the same terms, as for ANKLE2 (UniProt Q86XL3), the figure is -1.5 °C.

The test is the same for the next values; noted with them: A375; MBE1 concentration: 1 uM.
For CPSF7 (UniProt Q8N684), the melting temperature shift was found to be 0.342 °C.
For ZDHHC17 (UniProt Q8IUH5), the melting temperature shift came out at 0.295 °C.
In the case of CDR2L (UniProt Q86X02), the melting temperature shift was 0.556 °C.
In the case of C12ORF45 (UniProt Q8N5I9), the melting temperature shift was -2.8 °C.
Consider ARMC8 (UniProt Q8IUR7), for which the melting temperature shift is 0.25 °C.
Regarding AHNAK2 (UniProt Q8IVF2), the melting temperature shift turned out to be 0.858 °C.
On the same count and under the same terms, to UniProt Q8N5C6 belongs -0.0513 °C; to ALDH16A1 (UniProt Q8IZ83), -1.67 °C.
With RHOT1 (UniProt Q8IXI2), the melting temperature shift was -0.0122 °C.
On the same count and under the same terms, to UniProt Q8IX01 belongs -0.314 °C; to DCP2 (UniProt Q8IU60), -1.87 °C.
Still for that read-out and setting: as for UniProt Q8IVS2, the figure is 0.923 °C; as for ATPAF2 (UniProt Q8N5M1), -0.33 °C.
Regarding CCAR1 (UniProt Q8IX12), the melting temperature shift came to 0.592 °C.
Still for that read-out and setting: as for COMMD1 (UniProt Q8N668), the figure is 0.491 °C.
For the target MB21D2 (UniProt Q8IYB1), the melting temperature shift was determined as 2.23 °C.
Same read-out and setting: to TRAPPC5 (UniProt Q8IUR0) belongs -0.721 °C; to UniProt Q8IXU6, 1.12 °C.
For the target ZGPAT (UniProt Q8N5A5), the melting temperature shift was -0.365 °C.
For the target RDH10 (UniProt Q8IZV5), the melting temperature shift was 0.503 °C.
As to UniProt Q8IVL6, the melting temperature shift was determined as 0.232 °C.
Take C1ORF52 (UniProt Q8N6N3): the melting temperature shift was -3.1 °C.
In the case of UniProt Q8IWZ6, the melting temperature shift came out at 0.922 °C.
On the same count and under the same terms, to SPG20 (UniProt Q8N0X7) belongs -0.238 °C; to UniProt Q8N5Z0, 0.525 °C.
With MRPL50 (UniProt Q8N5N7), the melting temperature shift is -3.37 °C.
On the same count and under the same terms, as for WDFY1 (UniProt Q8IWB7), the figure is 0.727 °C.
For MAP7D3 (UniProt Q8IWC1), the melting temperature shift stood at 0.235 °C.
Take FAM114A1 (UniProt Q8IWE2): the melting temperature shift is 0.214 °C.
Regarding UniProt Q86XE0, the melting temperature shift was -0.641 °C.
As to UBR2 (UniProt Q8IWV8), the melting temperature shift was -0.179 °C.
Regarding UniProt Q8IZX4, the melting temperature shift is -1.18 °C.
Regarding PNPLA6 (UniProt Q8IY17), the melting temperature shift was determined as 0.495 °C.
With UniProt Q8IWK6, the melting temperature shift is -0.134 °C.
Consider ERI1 (UniProt Q8IV48), for which the melting temperature shift is 2.02 °C.
Turning to MIER1 (UniProt Q8N108), the melting temperature shift was -0.0183 °C.
Turning to SPATS2 (UniProt Q86XZ4), the melting temperature shift was -0.0122 °C.
The same measure, in the same setting: to ANKLE2 (UniProt Q86XL3) belongs -1.13 °C.
